PubChem BioAssay AID1259308, NCATS | 2017

- Assay: 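Candidate targets for better recombinant protein yield in mammalian cells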 (primary screen)
- System: human HEK293 embryonic kidney cells stably expressing firefly luciferase (HEK-CMV-Luc2-Hygro)
- Reagent: single siRNA against human genes, 0.8 pmol siRNA per well
- Duration: 72 h
- Measurement: 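Reporter luminescence and viable-cell signal on separate replicate plates, given as percent of non-targeting control and median/MAD z-scores, plus per-cell luciferase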
- Direction: total luciferase, z-score: higher = more reporter protein produced
- Rule for the call: 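Active when the median/MAD z-score for overall luciferase is greater than 3; a gene was taken forward for validation with new siRNAs if at least two of its three siRNAs passed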
- Meaning of the calls: active = raised luciferase; inactive = no rise
This is one part, drawn at random, of about 59,000 reagents tested. In the full data, about 1,510 (2.6%) got an active call. 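Calls use total luciferase alone and ignore viability, so some active siRNAs may act by altering cell number.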 The numbers tell different reagents against one gene apart. Further read-outs or replicates are left out here.

After knock-down of IFIH1 #1 the results were total luciferase, z-score 1.25; inactive.
Against IFIH1 #2 the deposit lists total luciferase, z-score -0.711; inactive.
Knock-down of IFIH1 #3 came out at: total luciferase, z-score -0.393; inactive.
After knock-down of AQP6 #1 the results were total luciferase, z-score 0.68; inactive.
Knock-down of AQP6 #2 came out at: total luciferase, z-score -0.0129; inactive.
Silencing of AQP6 #3 came out at: total luciferase, z-score -0.0389; inactive.
Against SMIM20 #1, the entry reads total luciferase, z-score 0.804; inactive.
After knock-down of SMIM20 #2, the screen gave total luciferase, z-score -0.042; inactive.
Silencing of SMIM20 #3 resulted in: total luciferase, z-score 0.623; inactive.
Against NUCB2 #1, the entry reads total luciferase, z-score -0.713; inactive.
Against NUCB2 #2, the entry reads total luciferase, z-score -0.167; inactive.
Against NUCB2 #3, the values are total luciferase, z-score -1.78; inactive.
FAM20A #1 scored total luciferase, z-score -0.17; inactive.
FAM20A #2 scored total luciferase, z-score 0.0217; inactive.
With knock-down of FAM20A #3 the results were total luciferase, z-score -0.355; inactive.
PDE1A #1 gave total luciferase, z-score -0.604; inactive.
Against PDE1A #2 the deposit lists total luciferase, z-score 1.12; inactive.
With knock-down of PDE1A #3 the results were total luciferase, z-score -1.08; inactive.
Knock-down of NEK5 #1 gave: total luciferase, z-score -1.65; inactive.
For NEK5 #2 the deposit lists total luciferase, z-score 0.395; inactive.
For NEK5 #3, the values are total luciferase, z-score 0.2; inactive.
Depletion of ZNF280A #1 came out at: total luciferase, z-score -0.968; inactive.
Against ZNF280A #2, the entry reads total luciferase, z-score 0.399; inactive.
Against ZNF280A #3, the values are total luciferase, z-score -0.0946; inactive.
Depletion of C9orf43 #1 came out at: total luciferase, z-score -0.531; inactive.
Depletion of C9orf43 #2 resulted in: total luciferase, z-score 0.941; inactive.
With knock-down of C9orf43 #3 the results were total luciferase, z-score -0.585; inactive.
MMP15 #1 showed total luciferase, z-score -0.298; inactive.
Silencing of MMP15 #2 resulted in: total luciferase, z-score -0.828; inactive.
For MMP15 #3 the deposit lists total luciferase, z-score -0.312; inactive.
For SLC44A3 #1, the entry reads total luciferase, z-score 1.17; inactive.
SLC44A3 #2 gave total luciferase, z-score -0.0705; inactive.
After knock-down of SLC44A3 #3, the screen gave total luciferase, z-score 0.112; inactive.

Part of the list above, reformatted.
{"gene symbol":"FAM20A","reagent no.":1,"total luciferase, z-score":-0.17,"Outcome":"inactive"}
{"gene symbol":"FAM20A","reagent no.":2,"total luciferase, z-score":0.0217,"Outcome":"inactive"}
{"gene symbol":"FAM20A","reagent no.":3,"total luciferase, z-score":-0.355,"Outcome":"inactive"}
